From article PMC6054272, “Arabidopsis SKP1-like protein13 (ASK13) positively regulates seed germination and seedling growth under abiotic stress” (Journal of Experimental Botany, 2018)
These are yes or no findings as the source states them, for the method shown. For part of these data: In cells and extracts the contact can be indirect. Some entries that bind do so weakly or less than the wild type. Sequences can lack the tags named with a protein.

Amino acid sequences for entries named in this document (tags omitted).
UniProt Q39255: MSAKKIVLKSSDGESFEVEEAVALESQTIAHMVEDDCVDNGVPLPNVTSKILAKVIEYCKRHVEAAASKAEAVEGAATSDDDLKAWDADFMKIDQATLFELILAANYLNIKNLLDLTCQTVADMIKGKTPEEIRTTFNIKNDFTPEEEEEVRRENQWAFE
UniProt Q9FHW7: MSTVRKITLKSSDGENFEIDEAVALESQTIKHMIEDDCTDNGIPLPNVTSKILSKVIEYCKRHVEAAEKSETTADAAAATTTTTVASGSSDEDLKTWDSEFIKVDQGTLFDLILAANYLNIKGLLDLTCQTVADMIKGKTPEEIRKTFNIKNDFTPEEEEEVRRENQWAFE

Experiments:
[1] = molecular target: T1, Arabidopsis SKP1-like protein13 (ASK13), yeast two-hybrid fusion (Arabidopsis thaliana) (UniProt Q9M1X5); test: two-hybrid; one-to-one: pDEST-GBKT7 and pDEST-GADT7 constructs co-transformed into Y2H Gold; SD-Ade-His-Leu-Trp/X-alpha-Gal/aureobasidin agar
T1 sequence: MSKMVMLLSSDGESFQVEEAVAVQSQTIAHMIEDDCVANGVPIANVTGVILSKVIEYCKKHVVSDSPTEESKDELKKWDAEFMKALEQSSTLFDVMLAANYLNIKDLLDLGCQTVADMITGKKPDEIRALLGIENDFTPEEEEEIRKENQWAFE

[2] = molecular target: ASK1 (Arabidopsis SKP1-like 1), yeast two-hybrid fusion (Arabidopsis thaliana) (UniProt Q39255); test: as above
[3] = molecular target: T1, Arabidopsis SKP1-like protein13 (ASK13), yeast two-hybrid fusion (Arabidopsis thaliana); test: two-hybrid; library screen: pGBKT7BD-ASK13 (bait) in Y2H Gold mated with a normalized Arabidopsis Y2H cDNA library (prey); SD lacking histidine, tryptophan, leucine and adenine with X-alpha-Gal and aureobasidin A; retrieved plasmids retested with the empty bait vector and with ASK13
[4] = molecular target: ASK2 (Arabidopsis SKP1-like 2), yeast two-hybrid fusion (Arabidopsis thaliana) (UniProt Q9FHW7); test: two-hybrid; one-to-one: pDEST-GBKT7 and pDEST-GADT7 constructs co-transformed into Y2H Gold; SD-Ade-His-Leu-Trp/X-alpha-Gal/aureobasidin agar
[5] = molecular target: T2, ASK7 (Arabidopsis SKP1-like 7), yeast two-hybrid fusion (Arabidopsis thaliana) (UniProt Q9LSY0); test: as above
T2 sequence: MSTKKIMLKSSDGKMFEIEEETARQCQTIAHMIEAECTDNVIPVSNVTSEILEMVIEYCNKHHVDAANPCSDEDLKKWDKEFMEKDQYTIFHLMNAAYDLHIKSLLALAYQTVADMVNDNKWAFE

[6] = molecular target: ASK10 (Arabidopsis SKP1-like 10), yeast two-hybrid fusion (Arabidopsis thaliana) (UniProt Q9LSX8); test: as above
[7] = molecular target: T3, ASK13, BiFC fusion with a half of EYFP (Arabidopsis thaliana) (UniProt Q9M1X5); test: split reporter; BiFC: nYFP (1-174) and cYFP (175-end) fusions bombarded into onion epidermal cells, 24 h in darkness, confocal microscopy of the YFP signal
T3 sequence: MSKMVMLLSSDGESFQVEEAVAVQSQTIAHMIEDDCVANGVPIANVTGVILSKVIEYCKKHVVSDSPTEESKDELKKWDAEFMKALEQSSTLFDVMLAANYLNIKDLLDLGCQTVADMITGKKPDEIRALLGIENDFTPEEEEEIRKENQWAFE

## ASK1 (Arabidopsis SKP1-like 1), yeast two-hybrid fusion (from UniProt Q39255 1-160)
[1]
  binding: binds

B1: Arabidopsis SKP1-like protein13 (ASK13), yeast two-hybrid fusion (protein, UniProt Q9M1X5 1-154)
chain: MSKMVMLLSSDGESFQVEEAVAVQSQTIAHMIEDDCVANGVPIANVTGVILSKVIEYCKKHVVSDSPTEESKDELKKWDAEFMKALEQSSTLFDVMLAANYLNIKDLLDLGCQTVADMITGKKPDEIRALLGIENDFTPEEEEEIRKENQWAFE
[2]
  binding: binds
[1]
  binding: binds
[3]
  binding: binds

B2: ASK7 (Arabidopsis SKP1-like 7), yeast two-hybrid fusion (protein, UniProt Q9LSY0 1-125)
chain: MSTKKIMLKSSDGKMFEIEEETARQCQTIAHMIEAECTDNVIPVSNVTSEILEMVIEYCNKHHVDAANPCSDEDLKKWDKEFMEKDQYTIFHLMNAAYDLHIKSLLALAYQTVADMVNDNKWAFE
[4]
  binding: binds
[5]
  binding: binds

B3: ASK10 (Arabidopsis SKP1-like 10), yeast two-hybrid fusion (protein, UniProt Q9LSX8 1-152)
chain: MSTKKIILKSSDGHSFEVEEEAACQCQTIAHMSEDDCTDNGIPLPEVTGKILEMVIEYCNKHHVDAANPCSDEDLKKWDKEFMEKYQSTIFDLIMAANYLNIKSLLDLACQTVADMIKDNTVEHTRKFFNIENDYTHEEEEAVRRENQWGFE
[6]
  binding: binds

B4: F-box protein At1g08710, BiFC fusion with the C-terminal half of YFP (protein, UniProt Q9CAZ0 1-295)
chain: MSANEIPDELWRKILEIGVKSSTFSYKDLCCISISSRRLFRLSCDDSLWDLLLVHDFPNHIVSASSSSESPTKFIYMTRFEREKERKLAAHRRALLRKESEISEWGRRIRELEARLSDEAERLQSSSLQFSDLLKVRQASVALNVWQPEVVRGRQKQMVEQNAVPVEGRLRALEMEMKLCKQQIMGLNRALREVKHRYDIAIKELESMKYHPLRDYKSIRNGDQGSNGKTKKLKTSINYSGDQVSNGKRRKLKTSIDCKFMNISHFSSCSSVTEKFYSYSPKIIHEYIPENLLVL
[7]
  binding: binds

B5: F-box protein At5g45360, BiFC fusion with the C-terminal half of YFP (protein, UniProt Q9FHK0 1-316)
chain: MSVSDEEDECFARFLESEVSSVEDKEETKEPEAKRQRIEKGETKALEKDEDQKENGNKDKTDAKRIESGVFTNVPTELFRHILKFLSSEDLVSCSLVCKFLNFAAADESLWRRLYCIRWGLTLPSRKLRESAWKKLYIDRDEQDMIELVRTCPSDFKEYYVHMQAAKRSQAPLPSQMVDDRIILDNTVLEQVSLWKKSKGLTDKAVTGHICLGTKCSYHQIDDVFICKETGNVHVCDDNCKEVILSPEGDLMVCTISGVCSDTLLVQTEPDADGCYEEEAELEAEVFTDKSRLARAFELGYNCDDEQELERTLRFC
[7]
  binding: binds

B6: Non-F-box protein At4g32530 (ATPase, F0/V0 complex, subunit C protein), BiFC fusion with the C-terminal half of YFP (protein, UniProt Q9SZY7 1-180)
chain: MSGVVALGHASSWGAALVRISPYTFSAIGIAISIGVSVLGAAWGIYITGSSLIGAAIEAPRITSKNLISVIFCEAVAIYGVIVAIILQTKLESVPSSKMYDAESLRAGYAIFASGIIVGFANLVCGLCVGIIGSSCALSDAQNSTLFVKILVIEIFGSALGLFGVIVGIIMSAQATWPTK
[7]
  binding: binds

B7: Non-F-box protein At2g23070 (Protein kinase superfamily protein), BiFC fusion with the C-terminal half of YFP (protein, UniProt O64816 56-432)
chain: ASLYRQHLRNQQQQHQQQQQSRVKEKSETLAQKIGKSIRRAGAPSKARVYADVNVVRPKDYWDYESLAVQWGVQDDYEVVRKVGRGKYSEVFEGIHATDNEKCVIKILKPVKKKKIKREIKILQNLCGGPNIVKLLDIVRDQQSKTPSLIFEHVNNKDFKVLYPTLSDYDVRYYIFELLKALDFCHSRGIMHRDVKPHNVMIDHEQRKLRLIDWGLAEFYHPGKEYNVRVASRYFKGPELLVDLQDYDYSLDLWSLGCMFAGMIFRKEPFFYGHDNYDQLVKIAKVLGTDELNAYLNKYRIELDPNLTSLVGRHSRKPWTKFINSENQHLAVPEAVDFVDKLLRYDHQERPTAKEAMAHPYFYPIRNAESSRTPRSQ
[7]
  binding: binds

B8: ASK13, BiFC fusion with a half of EYFP (protein, UniProt Q9M1X5 1-154)
chain: MSKMVMLLSSDGESFQVEEAVAVQSQTIAHMIEDDCVANGVPIANVTGVILSKVIEYCKKHVVSDSPTEESKDELKKWDAEFMKALEQSSTLFDVMLAANYLNIKDLLDLGCQTVADMITGKKPDEIRALLGIENDFTPEEEEEIRKENQWAFE
[7]
  binding: binds
